Assay [1] concerns the target T1, FLAG-tagged Olig2 (UniProt Q9EQW6).
T1 sequence: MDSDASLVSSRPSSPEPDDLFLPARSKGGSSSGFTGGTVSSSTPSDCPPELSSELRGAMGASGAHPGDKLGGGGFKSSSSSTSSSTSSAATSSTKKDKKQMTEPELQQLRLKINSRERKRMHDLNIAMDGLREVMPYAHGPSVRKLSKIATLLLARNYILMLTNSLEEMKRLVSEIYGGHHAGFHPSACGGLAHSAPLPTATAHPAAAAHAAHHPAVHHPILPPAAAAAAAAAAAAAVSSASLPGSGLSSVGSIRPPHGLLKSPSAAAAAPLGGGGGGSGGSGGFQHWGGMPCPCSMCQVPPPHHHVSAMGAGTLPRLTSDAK
Put plainly: co-IP; FLAG-tagged Olig2 co-IP in transfected HEK293 cells; immunoprecipitates analysed with anti-HA and anti-FLAG antibodies.

Assay [2] concerns the target T2, Oligodendrocyte transcription factor 2 (Olig2), full-length, yeast two-hybrid bait (UniProt Q9EQW6).
T2 sequence: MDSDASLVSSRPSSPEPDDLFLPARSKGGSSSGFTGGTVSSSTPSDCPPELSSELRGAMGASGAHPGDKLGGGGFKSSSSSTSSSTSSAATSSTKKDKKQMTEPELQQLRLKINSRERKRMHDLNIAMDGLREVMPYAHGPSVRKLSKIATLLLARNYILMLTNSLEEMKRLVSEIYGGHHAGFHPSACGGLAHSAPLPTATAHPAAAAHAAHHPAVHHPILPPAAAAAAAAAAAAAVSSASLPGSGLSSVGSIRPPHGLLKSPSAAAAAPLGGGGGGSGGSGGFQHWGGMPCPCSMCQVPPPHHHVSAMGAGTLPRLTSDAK
The assay is described as follows: two-hybrid; yeast two-hybrid screening; full-length Olig2 as bait; mouse embryonic brain cDNA library fused with the LexA activation domain.

These are yes or no findings as the source states them, for the method shown. For part of these data: Binding seen in cells or lysates may run through a third protein. Some binding calls cover weakened binding; strength is not graded here. For part of these data: Where a sequence is shown, tags or fusion partners need not be part of it.

In the case of “HA-tagged Ddx20ΔC, a truncated form of Ddx20 lacking the C-terminal region (730-825 aa) (from UniProt Q9JJY4 1-729) (domain or fragment)”, in assay [1], the binding entry is “no binding”.

For the molecule “HA-tagged Ddx20 (from UniProt Q9JJY4 1-825)”, the binding entry in assay [1] is “binds”.

B1: Ddx20 C-terminal region (748-825 aa), yeast two-hybrid prey (domain or fragment, UniProt Q9JJY4 748-825)
chain: QSEPQEESWYDCHRETTASFSDTYQDYEEYWRAYYRAWQEYYAAASHSYYWNAQRHPSWMAAYHMNTVYLQEMMRGNQ
As to B1, the binding entry in assay [2] is on record as “binds”.

The record behind these values is PMC9090832.
